Test results as given in the supplement of paper PMC7661543.
Differences between knockout arms are mostly noise.

Tested on: BT-20
Test: relative cell number vs DMSO control (72 h) (% of DMSO); higher = less growth inhibition (more cells)
Method: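 QMAP-Seq: a pool of 5 breast cancer cell lines (ZR-75-1, SKBR3, HCC-38, MDA-MB-231, BT-20), each carrying 12 doxycycline-inducible Cas9 sgRNA perturbations (11 knockouts plus non-targeting sgNT), was treated with compounds for 72 h at four 10-fold doses (10 nM-10 uM or 1 nM-1 uM range). Barcodes were amplified and sequenced, and cell number was interpolated from 293T spike-in standard curves. The result is expressed as % of the median of DMSO wells. Two biological replicates.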

Cc1nc(Nc2ncc(C(=O)Nc3c(C)cccc3Cl)s2)cc(N2CCN(CCO)CC2)n1 [Dasatinib]
Settings	relative cell number
sgRNA knockout: sgATF3, 10 nM	101
sgRNA knockout: sgATF3, 100 nM	70.2
sgRNA knockout: sgATF3, 1000 nM	93
sgRNA knockout: sgATF3, 10000 nM	64.4
sgRNA knockout: sgATF4, 10 nM	87.9
sgRNA knockout: sgATF4, 100 nM	83
sgRNA knockout: sgATF4, 1000 nM	93.7
sgRNA knockout: sgATF4, 10000 nM	79.8
sgRNA knockout: sgATF6, 10 nM	100
sgRNA knockout: sgATF6, 100 nM	79.4
sgRNA knockout: sgATF6, 1000 nM	95.7
sgRNA knockout: sgATF6, 10000 nM	63.6
sgRNA knockout: sgATG7, 10 nM	90.3
sgRNA knockout: sgATG7, 100 nM	83.717
sgRNA knockout: sgATG7, 1000 nM	87.3
sgRNA knockout: sgATG7, 10000 nM	65.9
sgRNA knockout: sgERN1, 10 nM	103
sgRNA knockout: sgERN1, 100 nM	76.2
sgRNA knockout: sgERN1, 1000 nM	91.7
sgRNA knockout: sgERN1, 10000 nM	63.4
sgRNA knockout: sgHSF1, 10 nM	85.3
sgRNA knockout: sgHSF1, 100 nM	76.3
sgRNA knockout: sgHSF1, 1000 nM	96.8
sgRNA knockout: sgHSF1, 10000 nM	63.2
sgRNA knockout: sgHSF2, 10 nM	96
sgRNA knockout: sgHSF2, 100 nM	85.6
sgRNA knockout: sgHSF2, 1000 nM	80.5
sgRNA knockout: sgHSF2, 10000 nM	65.3
sgRNA knockout: sgKEAP1, 10 nM	88.3
sgRNA knockout: sgKEAP1, 100 nM	79.3
sgRNA knockout: sgKEAP1, 1000 nM	91.5
sgRNA knockout: sgKEAP1, 10000 nM	63.9
sgRNA knockout: sgNFE2L2, 10 nM	84.3
sgRNA knockout: sgNFE2L2, 100 nM	73.6
sgRNA knockout: sgNFE2L2, 1000 nM	107
sgRNA knockout: sgNFE2L2, 10000 nM	63.8
sgRNA knockout: sgSLC35F2, 10 nM	108
sgRNA knockout: sgSLC35F2, 100 nM	99.9
sgRNA knockout: sgSLC35F2, 1000 nM	93
sgRNA knockout: sgSLC35F2, 10000 nM	64.3
sgRNA knockout: sgXBP1, 10 nM	94.1
sgRNA knockout: sgXBP1, 100 nM	80.3
sgRNA knockout: sgXBP1, 1000 nM	88.4
sgRNA knockout: sgXBP1, 10000 nM	64.7

COc1cc2nccc(Oc3ccc(NC(=O)NC4CC4)c(Cl)c3)c2cc1C(N)=O [Lenvatinib]
Settings	relative cell number
sgRNA knockout: sgATF3, 10 nM	96.5
sgRNA knockout: sgATF3, 100 nM	109
sgRNA knockout: sgATF3, 1000 nM	109
sgRNA knockout: sgATF3, 10000 nM	108
sgRNA knockout: sgATF4, 10 nM	98.1
sgRNA knockout: sgATF4, 100 nM	101.8
sgRNA knockout: sgATF4, 1000 nM	114
sgRNA knockout: sgATF4, 10000 nM	104
sgRNA knockout: sgATF6, 10 nM	94.3
sgRNA knockout: sgATF6, 100 nM	88.6
sgRNA knockout: sgATF6, 1000 nM	101
sgRNA knockout: sgATF6, 10000 nM	112
sgRNA knockout: sgATG7, 10 nM	98.1
sgRNA knockout: sgATG7, 100 nM	114
sgRNA knockout: sgATG7, 1000 nM	101
sgRNA knockout: sgATG7, 10000 nM	116
sgRNA knockout: sgERN1, 10 nM	93.4
sgRNA knockout: sgERN1, 100 nM	99
sgRNA knockout: sgERN1, 1000 nM	104
sgRNA knockout: sgERN1, 10000 nM	104
sgRNA knockout: sgHSF1, 10 nM	83.8
sgRNA knockout: sgHSF1, 100 nM	93.1
sgRNA knockout: sgHSF1, 1000 nM	112
sgRNA knockout: sgHSF1, 10000 nM	110
sgRNA knockout: sgHSF2, 10 nM	93.5
sgRNA knockout: sgHSF2, 100 nM	109
sgRNA knockout: sgHSF2, 1000 nM	112.1
sgRNA knockout: sgHSF2, 10000 nM	126
sgRNA knockout: sgKEAP1, 10 nM	91
sgRNA knockout: sgKEAP1, 100 nM	91.7
sgRNA knockout: sgKEAP1, 1000 nM	110.42
sgRNA knockout: sgKEAP1, 10000 nM	101
sgRNA knockout: sgNFE2L2, 10 nM	101
sgRNA knockout: sgNFE2L2, 100 nM	108
sgRNA knockout: sgNFE2L2, 1000 nM	120
sgRNA knockout: sgNFE2L2, 10000 nM	116
sgRNA knockout: sgSLC35F2, 10 nM	102
sgRNA knockout: sgSLC35F2, 100 nM	113
sgRNA knockout: sgSLC35F2, 1000 nM	114
sgRNA knockout: sgSLC35F2, 10000 nM	114
sgRNA knockout: sgXBP1, 10 nM	103
sgRNA knockout: sgXBP1, 100 nM	85.8
sgRNA knockout: sgXBP1, 1000 nM	105
sgRNA knockout: sgXBP1, 10000 nM	114

CN1CCN(CCOc2cc(OC3CCOCC3)c3c(Nc4c(Cl)ccc5c4OCO5)ncnc3c2)CC1 [Saracatinib]
Settings	relative cell number
sgRNA knockout: sgATF3, 10 nM	76.8
sgRNA knockout: sgATF3, 100 nM	89.6
sgRNA knockout: sgATF3, 1000 nM	86.4
sgRNA knockout: sgATF3, 10000 nM	64.3
sgRNA knockout: sgATF4, 10 nM	92.36
sgRNA knockout: sgATF4, 100 nM	94.4
sgRNA knockout: sgATF4, 1000 nM	84.6
sgRNA knockout: sgATF4, 10000 nM	59.9
sgRNA knockout: sgATF6, 10 nM	95.4
sgRNA knockout: sgATF6, 100 nM	83.5
sgRNA knockout: sgATF6, 1000 nM	79
sgRNA knockout: sgATF6, 10000 nM	56
sgRNA knockout: sgATG7, 10 nM	86.1
sgRNA knockout: sgATG7, 100 nM	86
sgRNA knockout: sgATG7, 1000 nM	89.5
sgRNA knockout: sgATG7, 10000 nM	63.7
sgRNA knockout: sgERN1, 10 nM	81.9
sgRNA knockout: sgERN1, 100 nM	91.4
sgRNA knockout: sgERN1, 1000 nM	87.5
sgRNA knockout: sgERN1, 10000 nM	68.1
sgRNA knockout: sgHSF1, 10 nM	91.5
sgRNA knockout: sgHSF1, 100 nM	84.5
sgRNA knockout: sgHSF1, 1000 nM	83
sgRNA knockout: sgHSF1, 10000 nM	57.9
sgRNA knockout: sgHSF2, 10 nM	89
sgRNA knockout: sgHSF2, 100 nM	87.4
sgRNA knockout: sgHSF2, 1000 nM	82.7
sgRNA knockout: sgHSF2, 10000 nM	66.8
sgRNA knockout: sgKEAP1, 10 nM	80
sgRNA knockout: sgKEAP1, 100 nM	92.8
sgRNA knockout: sgKEAP1, 1000 nM	83.6
sgRNA knockout: sgKEAP1, 10000 nM	72.6
sgRNA knockout: sgNFE2L2, 10 nM	80.8
sgRNA knockout: sgNFE2L2, 100 nM	99.7
sgRNA knockout: sgNFE2L2, 1000 nM	80.7
sgRNA knockout: sgNFE2L2, 10000 nM	53.2
sgRNA knockout: sgSLC35F2, 10 nM	101
sgRNA knockout: sgSLC35F2, 100 nM	94.7
sgRNA knockout: sgSLC35F2, 1000 nM	96
sgRNA knockout: sgSLC35F2, 10000 nM	72.8
sgRNA knockout: sgXBP1, 10 nM	83.8
sgRNA knockout: sgXBP1, 100 nM	104
sgRNA knockout: sgXBP1, 1000 nM	81.6
sgRNA knockout: sgXBP1, 10000 nM	53
